In paper PMC4937415:
Results are given in words; binding and its absence hold for the method and conditions named. In cells and extracts the contact can be indirect. Some entries that bind do so weakly or less than the wild type.

By UniProt entry, the sequences of proteins in these tests, tags left out.
UniProt P27695: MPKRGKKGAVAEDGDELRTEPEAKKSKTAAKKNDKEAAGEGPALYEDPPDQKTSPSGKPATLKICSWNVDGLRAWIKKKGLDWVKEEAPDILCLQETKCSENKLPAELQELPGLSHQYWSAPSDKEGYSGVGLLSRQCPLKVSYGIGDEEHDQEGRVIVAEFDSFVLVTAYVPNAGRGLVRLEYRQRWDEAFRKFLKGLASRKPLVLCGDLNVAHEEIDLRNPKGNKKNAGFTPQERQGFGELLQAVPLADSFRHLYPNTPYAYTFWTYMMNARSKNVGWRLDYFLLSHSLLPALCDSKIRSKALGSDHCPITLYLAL

Biological target: FH-APE1 (N-terminal FLAG-HA tagged APE1) (human) (UniProt P27695)
Assay: co-IP; anti-FLAG (M2) beads, total extracts of HeLaS cells expressing FH-APE1 (untreated or 25 μM H2O2 for 1 h) or empty vector; 4 h at 4 °C; blot with anti-PRDX1

B1: Peroxiredoxin 1 (PRDX1) (protein, UniProt Q06830 1-199)
chain: MSSGNAKIGHPAPNFKATAVMPDGQFKDISLSDYKGKYVVFFFYPLDFTFVCPTEIIAFSDRAEEFKKLNCQVIGASVDSHFCHLAWVNTPKKQGGLGPMNIPLVSDPKRTIAQDYGVLKADEGISFRGLFIIDDKGILRQITVNDLPVGRSVDETLRLVQAFQFTDKHGEVCPAGWKPGSDTIKPDVQKSKEYFSKQK
With B1 the binding was “binds”.
